# Reference: the supplement of paper PMC6411743
# ± gives the standard deviation of the averaged measurements. This is a selection; strong and weak results do not stand in their true shares.
# Key:
# Assay in all cases: NP40-soluble protein abundance relative to vehicle (solubility fold change) (ratio); higher = more soluble protein in presence of AMP-PNP
# [1] = molecular target: T1, UniProt Q8IX18 and related entries
# T1 sequence (whole entry): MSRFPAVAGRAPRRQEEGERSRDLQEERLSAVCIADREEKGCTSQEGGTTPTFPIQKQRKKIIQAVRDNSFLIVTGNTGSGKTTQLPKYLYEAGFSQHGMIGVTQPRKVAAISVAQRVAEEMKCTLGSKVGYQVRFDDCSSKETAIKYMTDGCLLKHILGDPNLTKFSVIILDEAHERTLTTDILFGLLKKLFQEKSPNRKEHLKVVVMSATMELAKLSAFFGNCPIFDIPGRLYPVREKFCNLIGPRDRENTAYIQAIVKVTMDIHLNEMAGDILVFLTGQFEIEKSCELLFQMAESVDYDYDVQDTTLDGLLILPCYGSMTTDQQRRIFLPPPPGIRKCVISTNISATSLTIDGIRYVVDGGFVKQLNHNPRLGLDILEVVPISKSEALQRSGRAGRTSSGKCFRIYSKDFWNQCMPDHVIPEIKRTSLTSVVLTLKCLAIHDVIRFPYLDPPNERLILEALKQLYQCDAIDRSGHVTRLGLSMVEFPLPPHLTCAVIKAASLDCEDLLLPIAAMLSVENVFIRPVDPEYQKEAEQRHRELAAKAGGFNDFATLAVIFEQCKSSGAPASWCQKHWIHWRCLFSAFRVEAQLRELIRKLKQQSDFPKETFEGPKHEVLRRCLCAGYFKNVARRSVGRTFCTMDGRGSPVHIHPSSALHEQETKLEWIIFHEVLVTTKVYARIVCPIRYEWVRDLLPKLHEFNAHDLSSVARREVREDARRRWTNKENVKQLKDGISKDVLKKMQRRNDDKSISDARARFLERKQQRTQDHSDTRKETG
# How it was run: (§1)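 Jurkat crude lysate prepared with a Dounce homogeniser was treated at eight concentrations spanning 0.1 to 10 mM, 10 min at room temperature then 3 min at 37 °C. Solubilisation with 0.8% NP40 and benzonase and ultracentrifugation preceded TMT labelling of the supernatant for LC-MS/MS. Fold change against the detergent-processed vehicle was determined per replicate from vsn-normalised intensities, across three independent experiments.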
# UniProt Q8N0Z3 = molecular target: T2, UniProt Q8N0Z3
# T2 sequence (whole entry): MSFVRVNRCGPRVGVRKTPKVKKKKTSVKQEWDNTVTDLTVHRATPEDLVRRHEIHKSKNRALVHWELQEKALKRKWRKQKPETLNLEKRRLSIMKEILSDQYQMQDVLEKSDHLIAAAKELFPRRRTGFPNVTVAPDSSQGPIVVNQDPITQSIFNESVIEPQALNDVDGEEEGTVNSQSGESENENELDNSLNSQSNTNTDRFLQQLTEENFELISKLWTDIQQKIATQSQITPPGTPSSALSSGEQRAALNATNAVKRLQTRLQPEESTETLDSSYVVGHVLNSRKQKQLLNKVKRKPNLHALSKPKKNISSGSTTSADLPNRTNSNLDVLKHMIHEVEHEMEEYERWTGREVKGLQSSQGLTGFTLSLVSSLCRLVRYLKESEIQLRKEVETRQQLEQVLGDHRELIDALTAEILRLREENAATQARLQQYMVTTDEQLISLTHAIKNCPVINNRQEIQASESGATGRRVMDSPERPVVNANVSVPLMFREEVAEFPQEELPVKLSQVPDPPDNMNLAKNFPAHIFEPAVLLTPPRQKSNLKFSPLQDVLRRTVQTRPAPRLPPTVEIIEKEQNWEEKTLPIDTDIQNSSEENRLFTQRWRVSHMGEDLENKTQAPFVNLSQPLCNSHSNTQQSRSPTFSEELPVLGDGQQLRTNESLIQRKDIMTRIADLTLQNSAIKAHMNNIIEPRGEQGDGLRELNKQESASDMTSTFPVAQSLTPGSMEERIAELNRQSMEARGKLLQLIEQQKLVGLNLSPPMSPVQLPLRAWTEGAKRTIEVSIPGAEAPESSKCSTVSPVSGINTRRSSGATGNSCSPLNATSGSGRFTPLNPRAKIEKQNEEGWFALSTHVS
# How it was run: as §1
# [2] = molecular target: T3, UniProt Q8N4Q1 and related entries
# T3 sequence (whole entry): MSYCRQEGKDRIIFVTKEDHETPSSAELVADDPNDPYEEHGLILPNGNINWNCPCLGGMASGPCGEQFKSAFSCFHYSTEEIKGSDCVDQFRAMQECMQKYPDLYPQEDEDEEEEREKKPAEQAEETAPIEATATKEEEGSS
# How it was run: as §1
# [3] = molecular target: T4, UniProt Q8N573 and related entries
# T4 sequence (whole entry): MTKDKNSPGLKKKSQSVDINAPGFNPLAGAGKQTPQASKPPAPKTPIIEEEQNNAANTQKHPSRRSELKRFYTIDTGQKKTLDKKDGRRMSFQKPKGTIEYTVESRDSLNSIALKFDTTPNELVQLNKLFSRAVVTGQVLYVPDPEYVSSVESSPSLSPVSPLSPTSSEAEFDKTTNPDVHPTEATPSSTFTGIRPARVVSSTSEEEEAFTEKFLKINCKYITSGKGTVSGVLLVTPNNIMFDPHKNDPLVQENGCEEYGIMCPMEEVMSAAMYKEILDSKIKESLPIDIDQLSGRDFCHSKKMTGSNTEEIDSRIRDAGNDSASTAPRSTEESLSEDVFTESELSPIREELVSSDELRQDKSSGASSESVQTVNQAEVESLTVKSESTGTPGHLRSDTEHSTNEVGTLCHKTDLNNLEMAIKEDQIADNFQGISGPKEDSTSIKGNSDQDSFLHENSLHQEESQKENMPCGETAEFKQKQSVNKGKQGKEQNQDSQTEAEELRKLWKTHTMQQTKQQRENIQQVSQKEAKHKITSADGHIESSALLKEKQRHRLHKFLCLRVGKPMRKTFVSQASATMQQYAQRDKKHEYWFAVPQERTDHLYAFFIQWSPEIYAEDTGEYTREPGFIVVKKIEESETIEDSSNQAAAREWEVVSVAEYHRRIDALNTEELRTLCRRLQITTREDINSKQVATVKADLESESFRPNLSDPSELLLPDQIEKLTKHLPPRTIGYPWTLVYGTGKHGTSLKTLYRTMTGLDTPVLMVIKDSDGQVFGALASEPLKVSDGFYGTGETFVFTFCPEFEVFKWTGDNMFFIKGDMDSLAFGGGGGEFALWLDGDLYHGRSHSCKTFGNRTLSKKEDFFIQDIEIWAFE
# How it was run: as §1
# [4] = molecular target: T5, UniProt Q8N5A5 and related entries
# T5 sequence (whole entry): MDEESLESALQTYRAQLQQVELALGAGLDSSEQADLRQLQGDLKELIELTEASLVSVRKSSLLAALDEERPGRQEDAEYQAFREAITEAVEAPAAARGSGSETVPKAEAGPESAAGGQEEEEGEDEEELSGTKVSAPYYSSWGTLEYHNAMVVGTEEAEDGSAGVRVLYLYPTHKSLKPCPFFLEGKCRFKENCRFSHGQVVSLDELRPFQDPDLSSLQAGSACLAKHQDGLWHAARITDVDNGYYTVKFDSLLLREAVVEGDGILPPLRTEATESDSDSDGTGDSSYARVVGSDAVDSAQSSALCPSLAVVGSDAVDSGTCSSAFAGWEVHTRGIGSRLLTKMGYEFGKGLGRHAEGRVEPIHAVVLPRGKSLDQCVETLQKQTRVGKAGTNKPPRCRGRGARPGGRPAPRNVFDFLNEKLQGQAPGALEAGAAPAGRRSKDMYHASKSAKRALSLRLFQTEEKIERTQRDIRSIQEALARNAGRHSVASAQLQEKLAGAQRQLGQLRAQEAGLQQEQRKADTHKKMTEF
# How it was run: as §1
structure (smiles),measurement,setting,value
Nc1ncnc2c1ncn2[C@@H]1O[C@H](COP(=O)(O)OP(=O)(O)NP(=O)(O)O)[C@@H](O)[C@H]1O [adenylyl imidodiphosphate],NP40-soluble protein abundance,[1]; concentration: 1mM,0.985 ± 0.082
same,NP40-soluble protein abundance,[1]; concentration: 2mM,0.975 ± 0.057
same,NP40-soluble protein abundance,[1]; concentration: 4mM,0.983 ± 0.061
same,NP40-soluble protein abundance,[1]; concentration: 6mM,0.946 ± 0.043
same,NP40-soluble protein abundance,[1]; concentration: 8mM,0.981 ± 0.024
same,NP40-soluble protein abundance,[1]; concentration: 10mM,0.954 ± 0.026
same,NP40-soluble protein abundance,UniProt Q8N0Z3; concentration: 1mM,0.943 ± 0.051
same,NP40-soluble protein abundance,UniProt Q8N0Z3; concentration: 2mM,0.976 ± 0.024
same,NP40-soluble protein abundance,UniProt Q8N0Z3; concentration: 4mM,0.959 ± 0.03
same,NP40-soluble protein abundance,UniProt Q8N0Z3; concentration: 6mM,0.955 ± 0.027
same,NP40-soluble protein abundance,UniProt Q8N0Z3; concentration: 8mM,0.957 ± 0.026
same,NP40-soluble protein abundance,UniProt Q8N0Z3; concentration: 10mM,0.964 ± 0.02
same,NP40-soluble protein abundance,[2]; concentration: 1mM,1.04 ± 0.061
same,NP40-soluble protein abundance,[2]; concentration: 2mM,1.1 ± 0.081
same,NP40-soluble protein abundance,[2]; concentration: 4mM,0.988 ± 0.066
same,NP40-soluble protein abundance,[2]; concentration: 6mM,0.974 ± 0.059
same,NP40-soluble protein abundance,[2]; concentration: 8mM,0.921 ± 0.027
same,NP40-soluble protein abundance,[2]; concentration: 10mM,0.947 ± 0.09
same,NP40-soluble protein abundance,[3]; concentration: 1mM,0.968 ± 0.0097
same,NP40-soluble protein abundance,[3]; concentration: 2mM,1.01 ± 0.011
same,NP40-soluble protein abundance,[3]; concentration: 4mM,1 ± 0.029
same,NP40-soluble protein abundance,[3]; concentration: 6mM,0.957 ± 0.013
same,NP40-soluble protein abundance,[3]; concentration: 8mM,0.937 ± 0.016
same,NP40-soluble protein abundance,[3]; concentration: 10mM,0.966 ± 0.045
same,NP40-soluble protein abundance,[4]; concentration: 1mM,1.07 ± 0.056
same,NP40-soluble protein abundance,[4]; concentration: 2mM,1.16 ± 0.054
same,NP40-soluble protein abundance,[4]; concentration: 4mM,1.14 ± 0.04
same,NP40-soluble protein abundance,[4]; concentration: 6mM,1.15 ± 0.087
same,NP40-soluble protein abundance,[4]; concentration: 8mM,1.1 ± 0.032
same,NP40-soluble protein abundance,[4]; concentration: 10mM,1.174 ± 0.0064

# Taken from above (2 entries):
structure (smiles),measurement,setting,value
Nc1ncnc2c1ncn2[C@@H]1O[C@H](COP(=O)(O)OP(=O)(O)NP(=O)(O)O)[C@@H](O)[C@H]1O [adenylyl imidodiphosphate],NP40-soluble protein abundance,[2]; concentration: 8mM,0.921 ± 0.027
same,NP40-soluble protein abundance,[2]; concentration: 10mM,0.947 ± 0.09
